Measurements as given in PubChem BioAssay AID504467 (National Center for Advancing Translational Sciences (NCATS), 2011).
Out of some 330,000 compounds screened, about 7,700 (2.3%) were called active. This list was built around the results that the source calls inconclusive (neither active nor inactive); the mix of calls is not that of the screen. The call rests on the fitted dose curve; in most records, active means well fitted inhibition curve with a large enough effect; inconclusive means small, poorly fitted or top-dose-only effect, or effect the other way; inactive means flat fitted curve, though single readings scatter. Potencies beside an inconclusive call are fits to weak or partial responses and may not hold up.
Potency means the concentration at half of the fitted maximal effect.

Experiment: qHTS screen for small molecules that inhibit ELG1-dependent DNA repair in human embryonic kidney (HEK293T) cells expressing luciferase-tagged ELG1; further: nearly all actives have a fitted effect of over 55% in size
Conditions: HEK293T ELG1-luciferase reporter, luminescence, 16 h, DNA damage induced by 5-fluorouridine; series mostly up to 46.1 µM
Method in brief: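 Quantitative HTS, concentration-response format. 2,000 cells/well co-treated with 5-fluorouridine and compound, 16 hr in 5% CO2 at 37 °C; ONE-Glo luminescence read after 30 min.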
In the case of O=C(CN1C(=O)NC2(CCCC2)C1=O)N1CCN(c2ccccc2Cl)CC1, the Potency is reported as inconclusive: 5.17 µM [activator, single point]. In the case of CSc1nnc(NC(=O)c2ccco2)s1, the Potency is reported as inconclusive: 20.6 µM [activator, single point]. With O=C(Nc1nccs1)c1cccc(NC(=O)C(F)(F)F)c1 the Potency was inconclusive: 14.6 µM [activator, partial curve]. In the case of O=c1c(-c2ccccc2)nc(-c2ccccc2)cn1O, the Potency is reported as inconclusive: 3.26 µM [activator, full curve, poor fit]. In the case of Cc1c(C(=O)N(C)Cc2ccc(OC(F)F)cc2)oc2ccccc12, the Potency is reported as “inactive”. In the case of CC(=O)c1ccc(N2CCN(CC(=O)NC(=O)NCc3ccccc3)CC2)cc1, the Potency is reported as “inactive”. For COc1ccc(-c2nn(-c3ccccc3)cc2/C=C/C(=O)N2CCN(c3ccccn3)CC2)cc1, the Potency was “inactive”. In the case of CCC1CCCCN1CCCNC(=O)c1ccc2c(c1)NC(=O)CS2 (stereo not drawn), the Potency is reported as inconclusive: 9.2 µM [activator, partial curve]. For CCOC(=O)C1CCN(C2CCN(C(=O)c3oc4c(C)c(C)ccc4c3C)CC2)CC1, the Potency was inconclusive: 20.6 µM [activator, partial curve, poor fit]. In the case of O=S(=O)(c1ccccc1F)N(Cc1ccco1)Cc1nnc(-c2ccccc2Br)o1, the Potency is reported as inconclusive: 29.1 µM [inhibitor, single point]. With CC(=O)c1cccc(-n2nnnc2SCC(=O)Nc2ccccc2N2CCCCC2)c1 the Potency was inconclusive: 16.4 µM [inhibitor, partial curve]. In the case of O=C(CSc1n[nH]c(=O)n1C1CC1)Nc1ccc(F)c([N+](=O)[O-])c1, the Potency is reported as “inactive”. With CCc1ccc(/C=N/NC(=O)c2ccc(OC3CCCC3)cc2)s1 the Potency was inconclusive: 23.1 µM [inhibitor, partial curve, poor fit]. For O=C(CCl)NNC(=O)c1c(O)c2ccccc2[nH]c1=O, the Potency was “inactive”. With CC(=O)C1=C(C)NC(SCC(=O)Nc2nc3ccccc3s2)=C(C#N)C1c1ccc(Cl)cc1 (stereo not drawn) the Potency was inconclusive: 11.6 µM [activator, partial curve, poor fit]. For CC(C)(C)N=C1NN=C(c2ccc(Cl)cc2)CS1, the Potency was inconclusive: 2.59 µM [activator, partial curve]. With Cc1cccc(NC(=O)c2cccc(N3C(=O)C4C5C=CC(C6CC56)C4C3=O)c2)c1 (stereo not drawn) the Potency was inconclusive: 29.1 µM [inhibitor, single point]. With COCc1c(C(=O)N/N=C(/C)c2ccc(OCc3ccccc3)cc2)nnn1-c1nonc1N the Potency was inconclusive: 18.3 µM [activator, partial curve]. With COC(=O)C1C(c2ccc(OC)cc2)Nc2nnc(C(F)(F)F)n2C1(C)O (stereo not drawn) the Potency was “inactive”. With CN1CCN(c2cc(=O)n(Cc3ccc(F)cc3)c(=O)[nH]2)CC1 the Potency was inconclusive: 32.6 µM [activator, partial curve, poor fit]. In the case of C=C(C)CSc1nc2c(c(=O)[nH]c(=O)n2C)n1CCC(C)C, the Potency is reported as inconclusive: 25.9 µM [inhibitor, single point]. With COc1ccc2nc(NC(=O)Cn3cnc4ccccc4c3=O)sc2c1 the Potency was inconclusive: 13 µM [activator, partial curve]. For CCCc1nc2ccccc2c(C(=O)O)c1CC, the Potency was inconclusive: 5.17 µM [activator, partial curve, poor fit]. With O=C(Cn1c2[n+](c3ccc(C(F)(F)F)cc31)CCCCC2)Nc1ccccc1 the Potency was inconclusive: 14.6 µM [activator, partial curve, poor fit]. In the case of Cc1ccc(C(=O)COC(=O)c2ccc(Cl)c(N)c2)s1, the Potency is reported as inconclusive: 20.6 µM [activator, partial curve]. In the case of Cc1cc(C)n2nc(Sc3ncccc3[N+](=O)[O-])nc2n1, the Potency is reported as “inactive”. With O=c1nc(N2CCCC2)nc(Nc2ccccc2)[nH]1 the Potency was inconclusive: 20.6 µM [activator, partial curve]. With Cc1c(CCC(=O)N[C@@H](C)C(=O)O)c(=O)oc2cc3oc4c(c3cc12)CCCC4 the Potency was inconclusive: 25.9 µM [activator, single point]. For C=CCOc1c(CNC2CCCC2)cc(Cl)cc1OC, the Potency was “inactive”. With CN1CCN(CCC(=O)N/N=C/c2ccccc2F)CC1 the Potency was inconclusive: 32.6 µM [activator, partial curve, poor fit]. For CCN1CCN(c2nc(N)c([N+](=O)[O-])c(Nc3ccc(C)c(C)c3)n2)CC1, the Potency was “inactive”. With COc1cc(NC(=O)NCC2CCN(Cc3ccccc3C)CC2)cc(OC)c1OC the Potency was “inactive”. In the case of Cc1ccc(S(=O)(=O)N(C)C)cc1NC(=S)N(CCC#N)Cc1cccnc1, the Potency is reported as inconclusive: 8.2 µM [inhibitor, partial curve, poor fit]. For CCn1c2ccccc2c2cc(NC(=O)CN(C)CC(=O)Nc3ccc(N4CCOCC4)cc3)ccc21, the Potency was inconclusive: 18.3 µM [inhibitor, single point]. For O=C(O)c1cc([N+](=O)[O-])ccc1C(=O)Nc1cccc([N+](=O)[O-])c1, the Potency was inconclusive: 18.3 µM [activator, partial curve]. With CN1CCN(CC2(O)CCN(S(=O)(=O)c3ccc(Cl)cc3)CC2)CC1 the Potency was “inactive”. For Cc1cc(C)c(NC(=O)CN2CCN(C)CC2)c(C)c1, the Potency was inconclusive: 23.1 µM [activator, single point]. With O=C(CCc1nnc(CCCc2ccccc2)o1)NC(C1CC1)C1CC1 the Potency was inconclusive: 18.3 µM [activator, partial curve]. For O=C(CN1C(=O)NC2(CCc3ccccc32)C1=O)Nc1ccccc1Cl (stereo not drawn), the Potency was “inactive”. In the case of COC(=O)c1ccc(-n2c(C)cc(C(=O)CSc3ccc(NC(C)=O)cc3)c2C)cc1, the Potency is reported as inconclusive: 16.4 µM [inhibitor, partial curve, poor fit]. In the case of COc1ccc(S(=O)(=O)NCc2ccc(C(=O)N3CCc4ccccc4C3)cc2)cc1, the Potency is reported as inconclusive: 20.6 µM [inhibitor, partial curve]. For CCCc1cc(C(=O)NCc2cccnc2)no1, the Potency was inconclusive: 25.9 µM [activator, single point]. For Cc1c(C(=O)NCCc2ccccc2)oc2ccc(S(=O)(=O)N3CCOCC3)cc12, the Potency was inconclusive: 18.4 µM [inhibitor, single point]. With CCOc1ccc(OCCC(=O)N(CC)CC(=O)NCc2cccs2)cc1 the Potency was “inactive”. For CN(C)S(=O)(=O)c1cccc(NC(=O)COc2cccc3ccccc23)c1, the Potency was “inactive”. In the case of O=C(Cn1cnc2c(nnn2Cc2ccc(F)cc2)c1=O)OCc1ccccc1, the Potency is reported as inconclusive: 18.4 µM [activator, single point]. In the case of CC(Sc1nnc(-c2ccco2)n1C)C(=O)Nc1nccs1 (stereo not drawn), the Potency is reported as inconclusive: 4.61 µM [inhibitor, partial curve, poor fit]. In the case of Cc1ccc(OCc2cc(C(=O)NC3CCOC3)no2)cc1C (stereo not drawn), the Potency is reported as inconclusive: 16.4 µM [activator, partial curve, poor fit]. For Cc1ccc(-c2nnc(-c3cc(C)on3)o2)cc1, the Potency was inconclusive: 2.06 µM [activator, full curve]. With NC(N)=Nc1cc2ccccc2c2ccccc12 the Potency was inconclusive: 11.6 µM [inhibitor, partial curve]. In the case of Cc1ccccc1S(=O)(=O)NCC1CCCO1 (stereo not drawn), the Potency is reported as inconclusive: 18.3 µM [activator, partial curve, poor fit]. In the case of Cn1ccnc1C(=O)c1cccc(Br)c1, the Potency is reported as “inactive”. For CCn1cc(CCC(=O)NCc2cccc(OC)c2OC)c2ccccc21, the Potency was “inactive”. With O=S(=O)(Nc1ccc2c(c1)OCCO2)c1ccc(F)c(F)c1 the Potency was inconclusive: 3.26 µM [inhibitor, partial curve, poor fit]. In the case of O=C(CCS(=O)(=O)c1ccc(Br)cc1)NCCC1=CCCCC1, the Potency is reported as inconclusive: 20.6 µM [activator, partial curve, poor fit]. In the case of CCCC(=O)Nc1nn(C)c2nc3c(C)cccc3cc12, the Potency is reported as “inactive”. In the case of CC(=O)Oc1cc2c(cc1Cl)C(c1cccs1)CC1(CC(C)(C)NC(=S)N1)O2 (stereo not drawn), the Potency is reported as “inactive”. With CCn1cc(Cl)c(C(=O)Nc2ccc3c(c2)OCCO3)n1 the Potency was inconclusive: 4.61 µM [activator, partial curve]. In the case of COc1ccc(NC(=O)Nc2cccc3c2O[C@H](CN(C)C(=O)Nc2ccc(OC)cc2)[C@@H](C)CN([C@H](C)CO)C3=O)cc1, the Potency is reported as active: 9.2 µM. In the case of CCC(C)C(=O)Nc1cc(OC)c(OC)cc1C(=O)O (stereo not drawn), the Potency is reported as inconclusive: 16.4 µM [activator, single point]. In the case of CCCS(=O)(=O)NCc1cn2c(C)csc2n1, the Potency is reported as inconclusive: 16.4 µM [activator, partial curve]. In the case of CC1CCN(c2c(NCC3CCC(C(=O)NCc4ccccc4Cl)CC3)c(=O)c2=O)CC1 (stereo not drawn), the Potency is reported as “inactive”. In the case of CCOc1ccc(-c2cn(-c3ccc(OC)cc3)c(SC)n2)cc1, the Potency is reported as inconclusive: 7.31 µM [activator, partial curve]. With Cn1c(SCC(=O)O)nc2ccccc2c1=O the Potency was inconclusive: 4.61 µM [activator, full curve, poor fit]. In the case of Cc1cc(C(=O)NNC(=O)c2ccccc2[N+](=O)[O-])c(C)o1, the Potency is reported as inconclusive: 18.3 µM [activator, single point]. In the case of O=C(O)c1ccccc1NS(=O)(=O)c1ccc2ccccc2c1, the Potency is reported as inconclusive: 29.1 µM [activator, single point]. With COc1ccc(Nc2nc(N)nc(CSCCO)n2)cc1 the Potency was inconclusive: 16.4 µM [activator, partial curve]. For COc1ccc(/C=C2\SC(=S)N(CC(=O)NC3C=CS(=O)(=O)C3)C2=O)cc1 (stereo not drawn), the Potency was “inactive”.
